Experimental findings from PubChem BioAssay AID1487 (National Center for Advancing Translational Sciences (NCATS), 2009) are described below.

Values joined by “and” are separate entries in the source; they are usually repeats but may differ in a detail not shown here. Equal values may be shown once. Some of the results follow. The main result of the screen is listed elsewhere. These columns were measured beside it and carry no call. Compounds called inactive in the main read-out are mostly missing here. Words in brackets tell the shape of the fitted curve; partial curves, single points and poor fits give uncertain potencies.

The nature of this assay: qHTS Assay for Modulators of Lamin A Splicing. To be noted: HeLa LMNA splicing GFP/RFP minigene ratio, 48 h. Summed up:
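Read-out is the ratio of GFP to DsRed2 object intensity, acquired by 488 nm laser-scanning cytometry on HeLa lamin A-EGFP minigene reporter cells. Compound incubation 48 hrs at 37 °C in Opti-MEM with 2% FBS; DMSO 0.5% final.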
For orientation: In qHTS, concentration-response curves come from the screen itself.

[1] abbreviates: measured here: RFP viability control channel.
The mark [2] stands for this setting: measured here: GFP splicing reporter channel.

As usually defined, the AC50 is the concentration at which the activity in the assay is half-maximal. With `COc1ccc(NS(=O)(=O)c2ccc(NS(=O)(=O)c3ccc(C)cc3)cc2)nn1`, the AC50 under setting [1] is 35.5 µM [rising, single point].

Turning to `Cc1noc2ncnc(Oc3ccc(Cl)cc3Cl)c12`, under setting [1], the concentration at half-maximal activity (AC50) was 15.8 µM [rising, partial curve]. As for `CCCCn1c(/C=N/Nc2nc3ccccc3[nH]2)nc2ccccc21`, the concentration at half-maximal activity (AC50) is 17.8 µM [rising, single point] under setting [2] and 15.8 µM [rising, partial curve, poor fit] under setting [1]. With `Cc1cccc(C)c1-n1ncc(C(=O)Nc2ccc3c(c2)OCCO3)c1C1CCN(C(=O)OC(C)(C)C)CC1`, the AC50 under setting [2] is 22.4 µM [falling, partial curve, poor fit]. Regarding `Cc1[nH]n(-c2ccccc2)c(=O)c1C(C[N+](=O)[O-])c1ccc(Cl)cc1` (stereo unspecified), the AC50 under setting [1] was 11.2 µM [rising, partial curve].

On to `O=C(Nc1cc(Cl)ccn1)C1CCN(S(=O)(=O)c2cccs2)CC1`, for which the AC50 is, setting by setting: under setting [2], 6.31 µM [rising, full curve]; under setting [1], 5.62 µM [rising, full curve].

Regarding `CC1Cc2ccccc2N1CC(=O)NC(=O)NC1CCCCC1` (stereo unspecified), under setting [1], the AC50 was 0.00398 µM [falling, full curve, poor fit]. On to `O=C(CCCCn1c(=O)c2ccccc2n(Cc2ccccc2F)c1=O)NC1CCN(Cc2ccccc2)CC1`, for which the concentration at half-maximal activity (AC50) is, setting by setting: under setting [2], 1.26 µM [falling, partial curve]; under setting [1], 1.12 µM [falling, partial curve, poor fit]. Regarding `COC(=O)C(C)Sc1ncnc2c1nnn2-c1ccc(F)cc1` (stereo unspecified), the AC50 is, setting by setting: under setting [2], 35.5 µM [rising, single point]; under setting [1], 35.5 µM [rising, single point]. With `COc1cccc(C(=O)O/N=C(\N)c2ccc([N+](=O)[O-])cc2)c1OC`, the concentration at half-maximal activity (AC50) under setting [1] was 12.6 µM [falling, single point].

In the case of `Cc1ccc(S(=O)(=O)NCC2COc3ccccc3O2)cc1` (stereo unspecified), the half-maximal activity concentration (AC50) under setting [1] was 31.6 µM [rising, single point]. In the case of `N#CCSc1nc2c(cc1C#N)CCCC2`, the AC50 under setting [2] is 6.31 µM [falling, single point]. On to `C#Cc1ccc(C(=O)Nc2cc(C(N)=O)ccc2N2CCOCC2)cc1`, for which, under setting [1], the concentration at half-maximal activity (AC50) is 0.0316 µM [rising, full curve, poor fit]. Take `Cc1ccc(-c2nc3ccccc3n2C)o1`: the half-maximal activity concentration (AC50) reads like this: under setting [2], 5.62 µM [rising, partial curve, poor fit]; under setting [1], 8.91 µM [rising, single point].

As for `Cc1ccc(-c2cn(S(=O)(=O)c3cccc4nsnc34)nc2N)cc1`, the concentration at half-maximal activity (AC50) under setting [2] was 3.98 µM [rising, full curve, poor fit] and the AC50 under setting [1] was 12.6 µM [rising, partial curve, poor fit].

Regarding `CC1CN(CC(=O)Nc2cc(S(=O)(=O)N3CCCC3)ccc2Cl)CC(C)O1` (stereo unspecified), under setting [2], the half-maximal activity concentration (AC50) is 0.355 µM [falling, full curve].

As to `COc1ccc(C)cc1Cn1c(S(C)(=O)=O)nc2ccccc21`, the AC50 under setting [1] was 20 µM [rising, partial curve, poor fit]. `COc1ccc(Nc2nc3ccccc3nc2C)cc1`: the half-maximal activity concentration (AC50) under setting [2] was 7.08 µM [rising, partial curve, poor fit].

Take `Cc1ccc2c(c1)C(SCC(=O)NCCc1ccccc1)CC1(CCCC1)O2` (stereo unspecified): under setting [1], the half-maximal activity concentration (AC50) was 22.4 µM [rising, single point]. Consider `Cn1cc(Br)c(C(=O)n2cc(Br)cn2)n1`, for which, under setting [2], the concentration at half-maximal activity (AC50) is 5.62 µM [falling, full curve, poor fit]. Same read-out and setting: to `Cn1c(=O)n(C)c2cc(NS(=O)(=O)c3ccccc3)c(NCc3ccccc3)cc21` belongs 39.8 µM [falling, partial curve, poor fit].

Turning to `Cc1cc(=O)n2[nH]c(N)c(N=Nc3ccccc3)c2n1`, the half-maximal activity concentration (AC50) under setting [1] was 17.8 µM [rising, single point]. The same measure, in the same setting: to `Cc1cccc(-n2c(C)nc3cc(C(=O)NCc4ccc5c(c4)OCO5)ccc32)c1` belongs 0.1 µM [rising, full curve, poor fit]. Take `C[C@]12CCC(=O)C=C1CC[C@@H]1[C@@H]2[C@@H](O)C[C@@]2(C)[C@H]1CC[C@]2(O)C(=O)COC(=O)CCC(=O)O`: the concentration at half-maximal activity (AC50) under setting [2] was 5.62 µM [rising, single point].

Take `Cc1ccc(Cl)cc1N1CCN(C(=O)CSc2nnc3n2C(C)(C)Cc2ccccc2-3)CC1`: the concentration at half-maximal activity (AC50) under setting [1] is 15.8 µM [rising, partial curve].

For the compound `CCOC(=O)c1cnc2sc3c(n2c1=O)CCCC3`, the half-maximal activity concentration (AC50) under setting [1] was 12.6 µM [rising, partial curve, poor fit]. Still for that read-out and setting: the figure for `CCNc1nc(SCCOc2ccccc2)nc(N(C)C)n1` is 22.4 µM [rising, single point]. Take `Cc1onc(-c2ccccc2)c1C(=O)N/N=C/c1cc2c(cc1Br)OCO2`: the half-maximal activity concentration (AC50) was 7.94 µM [rising, partial curve, poor fit] under setting [2] and 22.4 µM [rising, partial curve] under setting [1]. For the compound `CSc1nsc(NC(=O)Cc2ccccc2)n1`, the concentration at half-maximal activity (AC50) under setting [1] was 12.6 µM [rising, single point]. Regarding `Cc1nn(-c2nc3ccccc3n2Cc2ccccc2)c2c1C(=O)CC(C)(C)C2`, the concentration at half-maximal activity (AC50) under setting [2] is 12.6 µM [rising, partial curve, poor fit] and the AC50 under setting [1] was 14.1 µM [rising, partial curve, poor fit]. On to `COC(=O)Cc1ccc(N(Cc2ccccc2F)S(=O)(=O)c2ccc(Br)cc2)cc1`, for which the AC50 under setting [1] is 10 µM [falling, partial curve]. Still for that read-out and setting: to `COc1cc(NC(=O)CN(C)Cc2ccc(OC(F)F)cc2)c(C)cc1[N+](=O)[O-]` belongs 0.2 µM [rising, partial curve, poor fit]. Turning to `CC(C)(C)NC[C@H](O)COc1nsnc1N1CCOCC1`, the AC50 by setting is: under setting [2], 0.891 nM [falling, full curve, poor fit] and 6.31 nM [falling, full curve, poor fit]; under setting [1], 0.000794 µM [falling, full curve, poor fit]. In the case of `O=C(NC(=S)Nc1ccc(CN2CCCCC2)cc1)c1cccc(OCc2ccccc2)c1`, the AC50 under setting [1] was 17.8 µM [falling, single point]. The same measure, in the same setting: to `CCCc1cnc2c(c1SCc1cccc(C)c1)c(=O)n(C)c(=O)n2C` belongs 35.5 µM [rising, single point]. With `Cc1ccc(/C(=N\O)c2oc3c(C)c4oc(=O)cc(C)c4cc3c2C)cc1`, the AC50 is, setting by setting: under setting [2], 17.8 µM [rising, single point]; under setting [1], 14.1 µM [rising, partial curve].
